Measurements: the supplement of paper PMC11732987, “Enantioselective OTUD7B fragment discovery through chemoproteomics screening and high-throughput optimisation” (Communications Chemistry, 2025)
This is one part of the list. The data scatter; read single values as rough.

Amino acid sequences for entries named in this document (tags omitted). A change or cut given only in a name is not applied to a line headed by its entry.
UniProt O14617: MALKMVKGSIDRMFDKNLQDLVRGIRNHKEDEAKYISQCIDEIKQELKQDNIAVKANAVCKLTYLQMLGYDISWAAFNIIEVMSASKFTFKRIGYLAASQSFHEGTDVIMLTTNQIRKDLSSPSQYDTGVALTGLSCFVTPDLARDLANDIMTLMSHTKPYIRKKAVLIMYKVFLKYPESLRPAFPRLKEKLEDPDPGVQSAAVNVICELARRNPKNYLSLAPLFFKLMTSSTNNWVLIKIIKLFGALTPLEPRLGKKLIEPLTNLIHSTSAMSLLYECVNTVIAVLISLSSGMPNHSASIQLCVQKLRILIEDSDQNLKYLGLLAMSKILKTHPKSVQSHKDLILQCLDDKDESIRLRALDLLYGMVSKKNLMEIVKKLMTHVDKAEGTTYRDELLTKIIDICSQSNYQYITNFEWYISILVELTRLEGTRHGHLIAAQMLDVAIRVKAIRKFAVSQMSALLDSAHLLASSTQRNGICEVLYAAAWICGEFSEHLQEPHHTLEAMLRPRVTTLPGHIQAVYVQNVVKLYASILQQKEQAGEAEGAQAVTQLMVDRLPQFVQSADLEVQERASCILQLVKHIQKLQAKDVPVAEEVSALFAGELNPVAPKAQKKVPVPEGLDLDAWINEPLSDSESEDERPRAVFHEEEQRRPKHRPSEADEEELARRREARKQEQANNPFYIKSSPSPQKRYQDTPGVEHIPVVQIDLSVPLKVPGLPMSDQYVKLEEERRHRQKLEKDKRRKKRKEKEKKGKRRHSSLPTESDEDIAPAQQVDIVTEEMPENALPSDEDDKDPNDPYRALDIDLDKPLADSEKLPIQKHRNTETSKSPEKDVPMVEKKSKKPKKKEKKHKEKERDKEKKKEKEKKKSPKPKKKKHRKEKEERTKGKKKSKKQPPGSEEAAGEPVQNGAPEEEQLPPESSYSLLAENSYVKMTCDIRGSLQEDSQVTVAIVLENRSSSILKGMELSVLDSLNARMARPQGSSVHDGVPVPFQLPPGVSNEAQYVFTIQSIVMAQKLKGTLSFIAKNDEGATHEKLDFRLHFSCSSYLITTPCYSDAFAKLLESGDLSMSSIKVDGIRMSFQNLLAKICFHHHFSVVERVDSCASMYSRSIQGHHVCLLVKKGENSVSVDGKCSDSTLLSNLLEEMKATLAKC
UniProt O94973, whole entry, looked up: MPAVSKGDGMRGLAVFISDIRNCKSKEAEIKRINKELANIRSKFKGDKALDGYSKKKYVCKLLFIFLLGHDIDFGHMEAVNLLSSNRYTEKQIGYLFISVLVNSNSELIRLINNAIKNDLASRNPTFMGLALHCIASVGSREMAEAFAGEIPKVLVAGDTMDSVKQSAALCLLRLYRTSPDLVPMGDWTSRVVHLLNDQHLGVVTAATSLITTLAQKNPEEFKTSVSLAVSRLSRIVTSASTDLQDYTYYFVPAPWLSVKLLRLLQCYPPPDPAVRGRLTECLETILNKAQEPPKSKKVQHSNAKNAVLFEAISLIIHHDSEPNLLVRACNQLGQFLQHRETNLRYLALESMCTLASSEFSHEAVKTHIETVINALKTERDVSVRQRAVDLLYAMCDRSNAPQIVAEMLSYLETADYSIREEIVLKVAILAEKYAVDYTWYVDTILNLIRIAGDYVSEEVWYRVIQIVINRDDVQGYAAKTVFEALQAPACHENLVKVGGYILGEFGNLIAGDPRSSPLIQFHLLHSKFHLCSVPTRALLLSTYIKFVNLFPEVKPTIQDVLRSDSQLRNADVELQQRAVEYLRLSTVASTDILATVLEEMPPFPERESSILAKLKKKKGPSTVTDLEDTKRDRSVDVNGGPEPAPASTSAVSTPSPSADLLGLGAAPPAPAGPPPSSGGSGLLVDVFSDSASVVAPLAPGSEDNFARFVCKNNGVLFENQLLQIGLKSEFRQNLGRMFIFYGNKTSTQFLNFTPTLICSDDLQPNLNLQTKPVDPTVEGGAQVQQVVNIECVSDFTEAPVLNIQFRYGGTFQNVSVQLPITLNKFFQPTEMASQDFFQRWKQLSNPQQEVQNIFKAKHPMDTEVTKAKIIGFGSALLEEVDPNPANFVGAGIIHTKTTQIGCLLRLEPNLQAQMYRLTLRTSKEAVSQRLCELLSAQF
UniProt Q8TER5: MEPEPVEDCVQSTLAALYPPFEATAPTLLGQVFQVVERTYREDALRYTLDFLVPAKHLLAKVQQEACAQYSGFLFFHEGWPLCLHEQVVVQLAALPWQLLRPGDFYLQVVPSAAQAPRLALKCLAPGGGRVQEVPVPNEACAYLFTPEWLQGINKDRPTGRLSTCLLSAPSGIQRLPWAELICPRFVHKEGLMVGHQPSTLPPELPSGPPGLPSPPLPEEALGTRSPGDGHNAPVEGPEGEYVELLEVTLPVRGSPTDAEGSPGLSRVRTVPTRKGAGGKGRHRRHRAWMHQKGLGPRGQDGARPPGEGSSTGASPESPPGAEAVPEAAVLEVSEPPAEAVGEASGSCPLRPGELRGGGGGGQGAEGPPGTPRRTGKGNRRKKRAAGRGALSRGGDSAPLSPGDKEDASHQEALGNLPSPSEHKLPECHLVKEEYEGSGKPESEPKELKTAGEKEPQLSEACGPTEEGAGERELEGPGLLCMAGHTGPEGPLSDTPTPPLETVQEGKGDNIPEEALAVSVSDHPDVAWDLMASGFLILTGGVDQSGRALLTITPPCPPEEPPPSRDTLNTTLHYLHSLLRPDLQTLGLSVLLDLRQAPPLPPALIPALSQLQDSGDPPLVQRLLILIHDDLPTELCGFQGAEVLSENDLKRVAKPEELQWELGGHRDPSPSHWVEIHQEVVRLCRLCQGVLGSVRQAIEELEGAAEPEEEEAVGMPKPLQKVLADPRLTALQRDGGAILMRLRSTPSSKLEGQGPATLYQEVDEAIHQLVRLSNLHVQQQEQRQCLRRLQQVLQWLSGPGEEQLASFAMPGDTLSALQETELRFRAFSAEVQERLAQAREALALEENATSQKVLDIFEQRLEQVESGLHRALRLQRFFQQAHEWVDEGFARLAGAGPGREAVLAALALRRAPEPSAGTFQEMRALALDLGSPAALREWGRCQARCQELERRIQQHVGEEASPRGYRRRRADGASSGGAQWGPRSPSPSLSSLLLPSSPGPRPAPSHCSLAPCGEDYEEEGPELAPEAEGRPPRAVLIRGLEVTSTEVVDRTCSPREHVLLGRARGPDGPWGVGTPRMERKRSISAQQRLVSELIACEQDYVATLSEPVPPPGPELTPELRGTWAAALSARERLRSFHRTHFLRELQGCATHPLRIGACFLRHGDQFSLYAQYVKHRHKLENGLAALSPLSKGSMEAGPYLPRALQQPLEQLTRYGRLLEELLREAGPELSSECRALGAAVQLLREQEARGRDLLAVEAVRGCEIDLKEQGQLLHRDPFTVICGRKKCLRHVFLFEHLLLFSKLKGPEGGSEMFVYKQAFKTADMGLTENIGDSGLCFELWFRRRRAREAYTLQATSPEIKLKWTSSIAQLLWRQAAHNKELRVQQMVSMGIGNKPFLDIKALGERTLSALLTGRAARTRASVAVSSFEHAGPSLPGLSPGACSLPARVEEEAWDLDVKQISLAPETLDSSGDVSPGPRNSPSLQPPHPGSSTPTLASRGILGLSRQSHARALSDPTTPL
UniProt Q6P4F7: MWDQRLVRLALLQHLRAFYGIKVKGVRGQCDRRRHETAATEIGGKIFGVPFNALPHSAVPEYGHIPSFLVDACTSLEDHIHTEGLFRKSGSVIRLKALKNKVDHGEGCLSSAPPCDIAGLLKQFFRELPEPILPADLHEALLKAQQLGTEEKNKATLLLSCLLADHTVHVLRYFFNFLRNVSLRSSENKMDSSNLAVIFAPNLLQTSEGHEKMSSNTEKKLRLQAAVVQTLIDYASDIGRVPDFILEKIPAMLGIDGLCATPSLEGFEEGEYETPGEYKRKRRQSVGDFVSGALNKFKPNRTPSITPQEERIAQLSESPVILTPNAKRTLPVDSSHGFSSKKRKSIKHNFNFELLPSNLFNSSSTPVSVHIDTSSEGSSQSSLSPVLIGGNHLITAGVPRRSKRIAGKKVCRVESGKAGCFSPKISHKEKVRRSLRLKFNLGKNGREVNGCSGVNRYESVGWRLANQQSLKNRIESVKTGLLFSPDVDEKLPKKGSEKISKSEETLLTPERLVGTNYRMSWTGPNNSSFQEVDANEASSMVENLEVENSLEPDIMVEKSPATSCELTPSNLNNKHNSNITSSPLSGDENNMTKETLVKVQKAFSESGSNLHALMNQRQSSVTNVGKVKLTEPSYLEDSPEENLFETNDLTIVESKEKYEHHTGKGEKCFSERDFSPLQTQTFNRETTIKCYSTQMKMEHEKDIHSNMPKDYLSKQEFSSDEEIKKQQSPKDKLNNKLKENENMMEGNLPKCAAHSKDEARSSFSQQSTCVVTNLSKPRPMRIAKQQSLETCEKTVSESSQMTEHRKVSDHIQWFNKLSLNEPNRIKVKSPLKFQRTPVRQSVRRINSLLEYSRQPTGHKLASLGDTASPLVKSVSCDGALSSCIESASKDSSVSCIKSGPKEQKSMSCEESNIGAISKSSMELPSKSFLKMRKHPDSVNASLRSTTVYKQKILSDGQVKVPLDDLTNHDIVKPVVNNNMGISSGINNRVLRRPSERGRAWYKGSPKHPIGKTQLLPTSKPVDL
UniProt Q8IV38: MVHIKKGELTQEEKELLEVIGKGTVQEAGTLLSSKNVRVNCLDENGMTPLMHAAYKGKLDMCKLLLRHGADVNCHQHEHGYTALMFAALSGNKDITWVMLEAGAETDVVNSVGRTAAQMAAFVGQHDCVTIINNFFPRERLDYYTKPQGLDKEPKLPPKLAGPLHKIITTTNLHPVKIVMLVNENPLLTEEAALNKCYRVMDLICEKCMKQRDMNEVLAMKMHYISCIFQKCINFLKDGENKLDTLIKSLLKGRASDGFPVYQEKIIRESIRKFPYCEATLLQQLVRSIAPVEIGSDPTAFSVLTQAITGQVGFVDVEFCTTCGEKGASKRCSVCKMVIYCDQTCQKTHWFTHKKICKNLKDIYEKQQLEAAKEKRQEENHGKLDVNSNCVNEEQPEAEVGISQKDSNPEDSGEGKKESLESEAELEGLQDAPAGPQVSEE
UniProt O00192: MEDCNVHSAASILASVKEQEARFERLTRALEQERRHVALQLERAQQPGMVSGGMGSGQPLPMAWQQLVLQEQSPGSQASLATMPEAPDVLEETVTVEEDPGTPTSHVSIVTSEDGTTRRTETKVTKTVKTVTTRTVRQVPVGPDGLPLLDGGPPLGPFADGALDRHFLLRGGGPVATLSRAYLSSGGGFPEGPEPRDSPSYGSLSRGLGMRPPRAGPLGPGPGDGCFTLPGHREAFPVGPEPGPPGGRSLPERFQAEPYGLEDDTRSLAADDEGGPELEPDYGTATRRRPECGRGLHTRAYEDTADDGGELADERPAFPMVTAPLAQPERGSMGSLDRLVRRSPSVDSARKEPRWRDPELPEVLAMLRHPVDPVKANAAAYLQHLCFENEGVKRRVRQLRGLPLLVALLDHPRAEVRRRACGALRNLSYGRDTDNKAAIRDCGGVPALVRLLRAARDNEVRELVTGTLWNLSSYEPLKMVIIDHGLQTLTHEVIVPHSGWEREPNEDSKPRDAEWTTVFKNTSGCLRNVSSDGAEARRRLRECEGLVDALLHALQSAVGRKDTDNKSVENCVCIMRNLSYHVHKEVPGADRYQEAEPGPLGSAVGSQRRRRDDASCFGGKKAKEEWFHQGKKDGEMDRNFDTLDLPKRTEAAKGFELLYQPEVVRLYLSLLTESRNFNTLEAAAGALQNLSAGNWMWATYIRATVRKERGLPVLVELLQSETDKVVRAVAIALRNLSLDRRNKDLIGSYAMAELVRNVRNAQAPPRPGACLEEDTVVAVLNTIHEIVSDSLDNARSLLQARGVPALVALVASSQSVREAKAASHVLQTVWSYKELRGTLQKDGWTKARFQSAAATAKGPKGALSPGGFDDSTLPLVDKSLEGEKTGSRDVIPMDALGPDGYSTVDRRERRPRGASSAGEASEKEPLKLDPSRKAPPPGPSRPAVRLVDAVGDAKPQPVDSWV
UniProt P48444: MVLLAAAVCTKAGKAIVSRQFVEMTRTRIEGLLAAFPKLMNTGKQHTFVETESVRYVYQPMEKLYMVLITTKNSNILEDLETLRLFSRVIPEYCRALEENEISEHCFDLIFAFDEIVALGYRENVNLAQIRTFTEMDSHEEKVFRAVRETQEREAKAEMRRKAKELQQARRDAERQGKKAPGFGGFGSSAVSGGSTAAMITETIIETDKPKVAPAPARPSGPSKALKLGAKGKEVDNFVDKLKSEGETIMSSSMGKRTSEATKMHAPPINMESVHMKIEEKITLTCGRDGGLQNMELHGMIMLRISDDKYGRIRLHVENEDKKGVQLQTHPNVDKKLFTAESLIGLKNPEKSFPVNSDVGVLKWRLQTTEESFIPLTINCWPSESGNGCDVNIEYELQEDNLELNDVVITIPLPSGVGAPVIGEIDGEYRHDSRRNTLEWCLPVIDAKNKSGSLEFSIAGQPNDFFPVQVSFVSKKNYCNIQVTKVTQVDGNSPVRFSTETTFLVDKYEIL

How the values were obtained:
[1] = compound: ClCC(=O)N[C@@H]1CCCc2ccccc12; test: log2 mean competition ratio of IA-DTB cysteine labelling (DMSO/compound) (log2 ratio); higher = stronger cysteine engagement by compound; details: treatment time: 4 h, cell line lysate: HEK293T
Method: (§1)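 IA-DTB competitive cysteine chemoproteomics in HEK293T RIPA lysate. Lysates were treated with compound 29 or 30 at 50 or 200 µM for 4 h, then IA-DTB (500 µM, 1 h), trypsin-digested, NeutrAvidin-enriched and analysed by diaPASEF. Competition ratio = intensity DMSO / intensity compound (n=4 treated, n=64 DMSO); binding: mean log2 CR ≥ 1 and p ≤ 0.05 plus QC filters. Target is the cysteine site.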

[2] = compound: ClCC(=O)N[C@H]1CCCc2ccccc12; test: as above; details: treatment time: 4 h, cell line lysate: HEK293T
Method: as §1

Target | log2 mean competition ratio ([1]; 50 µM) | log2 mean competition ratio ([1]; 200 µM) | log2 mean competition ratio ([2]; 50 µM) | log2 mean competition ratio ([2]; 200 µM)
AP3D1 C1103 (UniProt O14617) | 0.187 | -0.0184 | 0.104 | -0.0929
APC C207 (UniProt P25054) | -0.291 | -0.472 | -0.0246 | -0.403
AP2A2 C396 (UniProt O94973) | -0.0751 | -0.248 | -0.226 | 0.0111
ARHGEF40 C556 (UniProt Q8TER5) | -0.176 | -0.291 | -0.0993 | 0.0381
ARFGEF3 C377 | -0.105 | 0.322 | 0.195 | -0.115
APBA2 C272 (UniProt Q99767) | -0.108 | -0.0245 | -0.197 | -0.0573
ARHGAP11A C791 (UniProt Q6P4F7) | -0.342 | -0.0833 | -0.233 | 0.0326
ANKMY2 C62 (UniProt Q8IV38) | 0.264 | -0.145 | -0.133 | -0.0748
AP2B1 C123 (UniProt P63010) | -0.116 | 0.0237 | -0.374 | -0.0802
ARVCF C442 (UniProt O00192) | 0.077 | 0.402 | 0.371 | 0.526
APC C914 (UniProt P25054) | -0.258 | -0.118 | -0.299 | -0.17
APBB2 C560 (UniProt Q92870) | 0.177 | 0.124 | 0.272 | 0.214
ANKRD27 C882 (UniProt Q96NW4) | -0.0929 | 0.251 | -0.325 | -0.0902
ARHGAP24 C75 (UniProt Q8N264) | -0.493 | 0.321 | -0.365 | -0.169
ARAF C538 (UniProt P10398) | 0.0346 | 0.354 | 0.0218 | 0.16
ARCN1 C479 (UniProt P48444) | -0.325 | -0.295 | -0.337 | -0.0485

Complete entries from above. Values in the order: log2 mean competition ratio ([1]; 50 µM) | log2 mean competition ratio ([1]; 200 µM) | log2 mean competition ratio ([2]; 50 µM) | log2 mean competition ratio ([2]; 200 µM)
ARAF C538 (UniProt P10398) reads 0.0346 | 0.354 | 0.0218 | 0.16
ANKMY2 C62 (UniProt Q8IV38) reads 0.264 | -0.145 | -0.133 | -0.0748
